Paper PMC11335199
Results are given in words; binding and its absence hold for the method and conditions named. Binding seen in cells or lysates may run through a third protein. Binding calls can cover weak binding; strength is not graded here.

The chains behind the UniProt entries cited, without tags or fusion partners.
UniProt Q6P6W3: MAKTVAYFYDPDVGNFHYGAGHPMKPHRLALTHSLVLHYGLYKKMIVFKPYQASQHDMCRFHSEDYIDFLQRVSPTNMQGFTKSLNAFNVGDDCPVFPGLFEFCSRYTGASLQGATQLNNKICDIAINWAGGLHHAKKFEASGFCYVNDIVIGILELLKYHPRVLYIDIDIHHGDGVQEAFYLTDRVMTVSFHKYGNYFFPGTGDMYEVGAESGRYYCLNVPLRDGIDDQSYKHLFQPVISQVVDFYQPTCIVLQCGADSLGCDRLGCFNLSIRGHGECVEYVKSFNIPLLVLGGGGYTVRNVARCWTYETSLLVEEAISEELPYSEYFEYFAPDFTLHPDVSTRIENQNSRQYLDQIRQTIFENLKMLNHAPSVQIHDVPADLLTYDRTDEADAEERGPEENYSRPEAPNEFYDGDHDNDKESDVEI
UniProt O35779: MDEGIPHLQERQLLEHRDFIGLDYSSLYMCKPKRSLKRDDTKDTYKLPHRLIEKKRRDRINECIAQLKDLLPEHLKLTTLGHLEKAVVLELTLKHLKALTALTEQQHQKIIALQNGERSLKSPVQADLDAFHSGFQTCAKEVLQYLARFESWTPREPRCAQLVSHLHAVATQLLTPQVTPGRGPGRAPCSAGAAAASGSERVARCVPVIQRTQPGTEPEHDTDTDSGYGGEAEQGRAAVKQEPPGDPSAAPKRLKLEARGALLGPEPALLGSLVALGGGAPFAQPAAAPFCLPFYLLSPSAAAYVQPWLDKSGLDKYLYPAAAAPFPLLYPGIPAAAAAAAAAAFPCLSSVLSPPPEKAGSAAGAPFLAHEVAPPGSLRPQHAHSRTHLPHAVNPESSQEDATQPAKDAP

Assays:
[1] = biological target: NCoR1 (nuclear receptor corepressor 1) (rat (endogenous in CA1 tissue)); experiment: co-IP; rat CA1 tissue lysate (0.5 mg, RIPA buffer: 50 mM Tris-HCl pH 7.4, 150 mM NaCl, 2 mM EDTA, 1% IGEPAL CA-630, 20 mM N-ethylmaleimide) precipitated with anti-NCoR1 antibody and Protein A/G Mag Sepharose beads at 4 °C overnight, blotted with anti-DEC2 and anti-NCoR1; non-trained and trained rats, and PBS- or NMDA (8 mM)-injected rats; IgG as control
[2] = biological target: histone deacetylase 3 (HDAC3) (rat (endogenous in CA1 tissue)) (UniProt Q6P6W3); experiment: co-IP; rat CA1 tissue lysates from trained and non-trained rats precipitated with anti-HDAC3 antibody, blotted with anti-NCoR1; IgG as control

With DEC2 (from UniProt O35779 1-410) the binding [1] was “binds”.

For “NCoR1 (nuclear receptor corepressor 1) (from UniProt A0A0G2K2B4)”, the binding [2] was “binds”.
